Results are given in words; binding and its absence hold for the method and conditions named. Binding seen in cells or lysates may run through a third protein. Some entries that bind do so weakly or less than the wild type.
Target: Hoxa3-FLAG (UniProt P02831)
Experiment: co-IP; HEK293T cells co-transfected with HA- and FLAG-tagged expression vectors, with empty pcDNA3 or with MEIS (Meis1) and PBX (Pbx1) vectors; proteins collected 48 h after transfection; anti-FLAG M2 antibody on Dynabeads Protein G; western blot of input and CoIP

The chains behind the UniProt entries cited, without tags or fusion partners.
UniProt P02831: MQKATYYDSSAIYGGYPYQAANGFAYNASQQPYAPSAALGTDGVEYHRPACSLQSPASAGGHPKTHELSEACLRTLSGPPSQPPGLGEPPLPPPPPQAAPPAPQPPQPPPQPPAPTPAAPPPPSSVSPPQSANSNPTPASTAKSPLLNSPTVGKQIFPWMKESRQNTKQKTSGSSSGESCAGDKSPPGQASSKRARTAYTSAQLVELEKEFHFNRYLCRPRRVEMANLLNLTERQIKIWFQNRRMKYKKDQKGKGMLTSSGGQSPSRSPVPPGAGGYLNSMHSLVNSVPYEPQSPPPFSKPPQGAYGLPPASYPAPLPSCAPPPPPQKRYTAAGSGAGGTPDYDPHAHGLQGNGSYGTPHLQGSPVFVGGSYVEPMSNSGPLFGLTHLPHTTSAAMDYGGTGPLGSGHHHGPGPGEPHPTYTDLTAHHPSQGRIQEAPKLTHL
UniProt P31245: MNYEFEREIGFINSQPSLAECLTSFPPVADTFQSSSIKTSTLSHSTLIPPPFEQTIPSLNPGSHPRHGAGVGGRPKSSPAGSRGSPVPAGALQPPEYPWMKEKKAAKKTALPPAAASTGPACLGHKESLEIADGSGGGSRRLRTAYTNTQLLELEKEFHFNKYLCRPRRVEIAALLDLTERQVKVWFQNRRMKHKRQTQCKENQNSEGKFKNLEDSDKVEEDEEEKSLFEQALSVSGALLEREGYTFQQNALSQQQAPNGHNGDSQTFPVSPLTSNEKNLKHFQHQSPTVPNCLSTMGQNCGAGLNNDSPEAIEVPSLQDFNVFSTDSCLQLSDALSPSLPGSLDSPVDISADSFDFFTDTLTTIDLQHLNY

binding: binds
Substance: Hoxa2-HA (from UniProt P31245 1-372)
